These are yes or no findings as the source states them, for the method shown. Some binding calls cover weakened binding; strength is not graded here.
Target: Human β-NGF (human) (UniProt P01138)
Assay: phage ELISA: phage-displayed clone on NGF-coated wells (left bar of each pair), read at 450 nm; control: HSA-coated wells (right bar)

Chains of the proteins cited; added tags and fusions are not shown. Lines headed by an entry give the natural chain unless they say otherwise; changes in a name come on top.
UniProt P01138: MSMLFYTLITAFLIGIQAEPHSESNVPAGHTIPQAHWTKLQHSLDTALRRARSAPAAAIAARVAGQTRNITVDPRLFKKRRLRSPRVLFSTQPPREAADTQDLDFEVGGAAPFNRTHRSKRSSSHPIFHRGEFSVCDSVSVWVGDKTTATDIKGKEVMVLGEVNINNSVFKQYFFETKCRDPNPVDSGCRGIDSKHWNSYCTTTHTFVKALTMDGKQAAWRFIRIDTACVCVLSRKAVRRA

Binder | binding
MADEEKLPPGWGKPWSARGRVTYINLITVAEQWERPS (designed binder) [NP-E3] | binds
MADEEKLPPGWFKCWGRGGRVWYMNWITVAGQWERPSG (designed binder) [NP-C5] | binds

Source: patent publication US20140005126A1, “SCAFFOLD PEPTIDES” (ISOGENICA LTD, priority 2010, published 2014)
